In article doi:10.1101/2025.11.26.690650 (bioRxiv, 2025) one finds binding data, which are given here for 1 substance.

Read-outs that look alike come from different tables or passages of the source. These are yes or no findings as the source states them, for the method shown.

For test [1], the target named is T1, Turnip crinkle virus P38 protein (TCV P38), wildtype (Turnip crinkle virus) (UniProt P06663).
T1 sequence: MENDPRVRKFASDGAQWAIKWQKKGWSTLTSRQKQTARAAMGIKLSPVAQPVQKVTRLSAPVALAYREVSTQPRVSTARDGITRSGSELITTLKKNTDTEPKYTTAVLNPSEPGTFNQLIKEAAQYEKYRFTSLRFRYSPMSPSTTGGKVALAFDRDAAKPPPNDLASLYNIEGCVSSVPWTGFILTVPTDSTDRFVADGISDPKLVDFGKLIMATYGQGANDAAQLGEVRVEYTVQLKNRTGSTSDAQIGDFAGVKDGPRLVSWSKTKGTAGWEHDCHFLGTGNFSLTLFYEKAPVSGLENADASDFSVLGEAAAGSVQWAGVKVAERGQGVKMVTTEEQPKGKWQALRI
The test can be described thus: native MS.

For test [2], the target named is T1, Turnip crinkle virus P38 protein (TCV P38), wildtype (Turnip crinkle virus). The test can be described thus: native MS. The source holds these as a separate data set.

On to “TCV P38_W274A (from UniProt P06663 1-351)”, for which the binding result in test [1] and in test [2] was “no binding” throughout.
